Laboratory results: PubChem BioAssay AID2778 (National Center for Advancing Translational Sciences (NCATS), 2010)
This list was built around the results that the source calls inconclusive (neither active nor inactive); the mix of calls is not that of the screen. Where the call is inconclusive, the potency comes from a doubtful curve fit. Activity calls are given as the source filed them. Calls come from the whole dose curve; as a rule, active = well fitted inhibition curve with a large enough effect; inconclusive = small, poorly fitted or top-dose-only effect, or effect the other way; inactive = flat fitted curve, though single readings scatter.

By UniProt entry, the sequences of proteins in these tests, tags left out.
UniProt O00255, whole entry, looked up: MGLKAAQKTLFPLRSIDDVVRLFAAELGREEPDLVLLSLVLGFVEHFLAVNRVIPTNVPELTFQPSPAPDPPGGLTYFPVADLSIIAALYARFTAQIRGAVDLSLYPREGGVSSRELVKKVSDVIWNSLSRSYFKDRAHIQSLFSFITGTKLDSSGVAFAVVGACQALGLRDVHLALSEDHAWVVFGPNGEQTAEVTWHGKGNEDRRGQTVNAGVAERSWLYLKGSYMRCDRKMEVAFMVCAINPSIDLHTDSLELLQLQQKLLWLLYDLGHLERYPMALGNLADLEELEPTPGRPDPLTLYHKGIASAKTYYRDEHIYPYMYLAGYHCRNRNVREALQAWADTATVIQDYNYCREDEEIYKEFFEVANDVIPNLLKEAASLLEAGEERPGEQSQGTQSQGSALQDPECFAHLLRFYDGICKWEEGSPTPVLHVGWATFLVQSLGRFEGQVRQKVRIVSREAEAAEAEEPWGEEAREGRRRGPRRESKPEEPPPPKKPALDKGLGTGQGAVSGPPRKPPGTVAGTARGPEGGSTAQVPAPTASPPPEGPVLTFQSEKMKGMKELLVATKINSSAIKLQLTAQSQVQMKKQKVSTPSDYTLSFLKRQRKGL

Molecular target: Menin (Homo sapiens) (UniProt O00255)
Assay: Confirmation of Inhibitors Targeting the Menin-MLL Interaction in MLL Related Leukemias: Confirmation in an HTRF (commercial TR-FRET) Assay using His-tagged menin and biotin-labeled MLL peptide
Conditions: His-menin / biotin-MLL peptide binding; series mostly up to 383 µM
Excerpt: qHTS Assay for Inhibitors Targeting the Menin-MLL Interaction in MLL Related Leukemias
NIH Chemical Genomics Center [NCGC]
NIH Molecular Libraries Probe Centers Network [MLPCN]
Assay Submitter (PI): Jolanta Grembecka, Tomasz Cierpicki, University of Virginia
Translocations of the MLL (Mixed Lineage Leukemia) gene are frequently found in human leukemias affecting both children and adults. Fusion of MLL to one of more than 60 genes results in generation of oncogenic proteins upregulating Hox genes, which are vital to blood cell development. Patients harboring fusion of the MLL gene suffer from aggressive leukemias and respond poorly to available therapies. All of the oncogenic fusion proteins have a preserved N-terminal fragment of MLL that has been identified to interact with menin. It has been recently discovered that association with menin is critical to the leukemogenic activity of the MLL fusion oncoproteins. Selective targeting of the menin-MLL interaction could provide an attractive therapeutic approach to develop novel drugs for MLL-related leukemias. Small molecules blocking the menin-MLL interaction should reverse the oncogenic potential of MLL fusion proteins.
We have developed and optimized a fluorescence polarization-based assay for the identification of Menin-MLL inhibitors. The assay was run employing two different MLL-derived peptides. The present assay uses a 12 amino acid peptide labeled with fluorescein at its N-terminus. This peptide consists of the menin high affinity binding motif from MLL and is potently bound by menin. Another peptide with a mutated sequence, labeled with Texas Red, was used in parallel as a less stringent screen for inhibitors.
The present assay uses an alternate technology to confirm hits from the primary screen - homogeneous time resolved fluorescence (HTRF).
The Menin protein, the MLL-wild type (w.t.) derived peptide (N-terminal 12 amino acids), the MLL-derived peptide labeled with Texas Red and the MLL-w.t. peptide labeled with Fluorescein were kindly supplied by laboratory of Dr. Jolanta Grembecka, University of Virginia. All protein and peptide solutions were stored in single use aliquots at -80C. The Eu3+ Cyrptate-conjugated mouse monoclonal antibody anti-6 Histidine (Eu3+-AB) and the Streptavidin-XL665 conjugate (XL665) were purchased from Cisbio International (Bedford, MA). All antibody and XL665 conjugate solution stocks were stored in single use aliquots at -20C. The Buffer components for all assays were purchased from Sigma-Aldrich (St. Louis, MO) and Invitrogen (Carlsbad, CA).
1. HTRF reaction buffer: 50 mM Tris-HCl pH 7.5, 50 mM NaCl, 1mM DTT.
Before use, 0.05% BSA is added.
2. His6-Menin protein, MLL-w.t. labeled with biotin.
Stored in singe use aliquots at -80C.
3. MLL-w.t. unlabeled peptide as positive control: 10 uM final in HTRF buffer.
1. Prepare His6-Menin at 200 nM, MLL-w.t.-biotin at 80 nM in HTRF buffer.
2. Prepare His6-Menin at 200 nM, MLL-w.t.-biotin at 80 nM and 10 uM MLL-w.t. unlabeled mixture in HTRF buffer.
3. Dispense 10 ul per well of reagent in step 1 in columns 2, 4-24 in a black 384 well plate, dispense 10 ul per well of reagents from steps 2 in column 1. Incubate plate at ambient for 15 minutes.
4. Transfer 1 uL per well of compound to plate and incubate at ambient for 1 hr.
5. Dispense 10uL of the donor (6His-Cryptate, 3.5 nM final conc.) and acceptor (SA_XL, 10nM final conc.) complex in the HTRF buffer with 0.01% BSA. Incubate for 1h.
Potency is the fitted concentration of half-maximal effect.

c1cc2cc(c1)C[n+]1ccc(c3ccccc31)NCc1ccc(cc1)CNc1cc[n+](c3ccccc13)C2
Potency: active: 282 µM

O=C1NC(=O)c2c1c1c3ccccc3n3c1c1c2c2ccccc2n1C1CCC3O1
Potency: inconclusive: 31.6 µM [inhibitor, full curve]

CCCCCn1c(=O)c(C(=O)Nc2nc(CC(=O)OCC)cs2)c(O)c2ccccc21
Potency: inconclusive: 89.1 µM [inhibitor, single point]

COc1cc(-c2ccc(-[n+]3nc(-c4ccccc4)nn3-c3ccc([N+](=O)[O-])cc3)c(OC)c2)ccc1-[n+]1nc(-c2ccccc2)nn1-c1ccc([N+](=O)[O-])cc1
Potency: active: 56.2 µM

CCCCn1c(=O)c(C(=O)Nc2ccsc2C(=O)OC)c(O)c2ccccc21
Potency: inactive

O=C(O)CN1C(=O)CN=C(c2ccccn2)c2cc(Cl)ccc21
Potency: inactive

CC[n+]1c(-c2ccccc2)c2cc(N)ccc2c2ccc(N)cc21
Potency: inconclusive: 794 µM [inhibitor, single point]
